From the supplement of paper PMC4604168 (melanoma cell lines)
This is one part of the list. Single values are uncertain, as repeats are few or missing.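 The apoptosis fraction was the count of cleaved-PARP antibody-stained nuclei relative to all DNA-stained nuclei, imaged in 1,536-well plates. Screening doses were set so most cells survived, and baseline and induced cleaved-PARP levels vary greatly across cell lines.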

How the values were obtained:
Experiment in all cases: cleaved PARP positive nuclei fraction relative to DMSO control; melanoma cells; higher = more apoptosis
Settings in all cases: library dose: low library concentration; 72 h
501Mel = tested on: 501Mel
A101D = tested on: A101D
A2058 = tested on: A2058
C32 = tested on: C32
CBRC008 = tested on: CBRC008 (line from a melanoma biopsy)
CBRC014 = tested on: CBRC014 (line from a melanoma biopsy)
CBRC016 = tested on: CBRC016 (line from a melanoma biopsy)
CBRC017 = tested on: CBRC017 (line from a melanoma biopsy)
A375 = tested on: A375
CBRC013 = tested on: CBRC013 (line from a melanoma biopsy)

SMILES | cleaved PARP positive nuclei fraction (501Mel) [%] | cleaved PARP positive nuclei fraction (A101D) [%] | cleaved PARP positive nuclei fraction (A2058) [%] | cleaved PARP positive nuclei fraction (C32) [%] | cleaved PARP positive nuclei fraction (CBRC008) [%] | cleaved PARP positive nuclei fraction (CBRC014) [%] | cleaved PARP positive nuclei fraction (CBRC016) [%] | cleaved PARP positive nuclei fraction (CBRC017) [%] | cleaved PARP positive nuclei fraction (A375) [%] | cleaved PARP positive nuclei fraction (CBRC013) [%]
N.N.[Cl][Pt][Cl] [cisplatin] + O=S(=O)(c1ccccc1)N(CC(F)(F)F)c1ccc(C(O)(C(F)(F)F)C(F)(F)F)cc1 [T0901317] (first compound 1.6 µM, partner dose 1.4 µM) | 64.9 | 19.8 | 21.6 | 50.6 | 57.8 | 122 | 52.4 | 154 |  | 
NCC(=O)Nc1ccc(-n2nc(C(F)(F)F)cc2-c2ccc3c(ccc4ccccc43)c2)cc1 + O=C(Oc1ccc([N+](=O)[O-])cc1)N1CCC(C(O)(c2ccc3c(c2)OCO3)c2ccc3c(c2)OCO3)CC1 [JZL184] (first compound 1 µM, partner dose 1 µM) | 336 | 75.8 | 70.3 | 123 |  | 92.5 | 27.3 | 103 | 671 | 185
C[As](C)SC[C@H](NC(=O)CC[C@H](N)C(=O)O)C(=O)NCC(=O)O [Darinaparsin] + O=C(Nc1ccccc1)c1cc([N+](=O)[O-])ccc1Cl [GW9662] (first compound 0.4 µM, partner dose 2 µM) | 164 | 115 | 86.9 | 74.4 |  | 94.1 | 148 | 72 | 163 | 64.1
CN(NC(=O)CC(=O)NN(C)C(=S)c1ccccc1)C(=S)c1ccccc1 + O=C(Oc1ccc([N+](=O)[O-])cc1)N1CCC(C(O)(c2ccc3c(c2)OCO3)c2ccc3c(c2)OCO3)CC1 [JZL184] (first compound 0.006 µM, partner dose 1 µM) | 322 | 49 | 150 | 33.7 |  | 536 | 240 | 136 | 1140 | 508
O=C(Nc1cccc(Cl)c1)Nc1ncc(CCNc2ncnc3ccsc23)s1 + Cc1cc(SCc2sc(-c3ccc(C(F)(F)F)c(F)c3)nc2C)ccc1OCC(=O)O [GW0742] (first compound 0.0008 µM, partner dose 2 µM) | 150 | 209 | 41.7 | 288 |  | 85 | 90 | 168 | 99 | 83
Nc1cccc2c1CN(C1CCC(=O)NC1=O)C2=O (stereo not drawn) [lenalidomide] + C/C(O)=C(\C#N)C(=O)Nc1cc(Br)ccc1Br [LFM-A13] (first compound 1 µM, partner dose 2 µM) | 148 | 52.2 | 102 | 125 |  | 82.8 | 73.1 | 144 | 134 | 34.2
Cc1cc([N+](=O)[O-])ccc1NS(=O)(=O)c1cc(Cl)ccc1Cl + O=C(Oc1ccc([N+](=O)[O-])cc1)N1CCC(C(O)(c2ccc3c(c2)OCO3)c2ccc3c(c2)OCO3)CC1 [JZL184] (first compound 1 µM, partner dose 1 µM) | 32.7 | 201 | 33 | 72.8 |  | 171 | 758 | 666 | 116 | 394
COc1cc2ncnc(Nc3ccc(Oc4ccccc4)cc3)c2cc1OC + C/C(O)=C(\C#N)C(=O)Nc1cc(Br)ccc1Br [LFM-A13] (first compound 2 µM, partner dose 2 µM) | 135 | 101 | 67.8 | 172 |  | 89.8 | 83.5 | 44.2 | 34.2 | 46.2
NC(=O)c1ccc(N(C(N)=O)c2c(F)cccc2F)nc1-c1ccc(F)cc1F + C[As](C)SC[C@H](NC(=O)CC[C@H](N)C(=O)O)C(=O)NCC(=O)O [Darinaparsin] (first compound 0.4 µM, partner dose 0.4 µM) | 104 | 89.1 | 81.7 |  | 47.9 | 105 | 118 | 95.8 | 68.1 | 
O=C(O)c1ccc(-c2c[nH]c3ncc(-c4ccccc4)cc23)cc1C1CCCC1 + Cc1cc(SCc2sc(-c3ccc(C(F)(F)F)c(F)c3)nc2C)ccc1OCC(=O)O [GW0742] (first compound 0.16 µM, partner dose 2 µM) | 84.5 | 104 | 80.3 | 136 |  | 95.9 | 129 | 113 | 169 | 56.6
Cc1cc(SCc2sc(-c3ccc(C(F)(F)F)c(F)c3)nc2C)ccc1OCC(=O)O + O=c1cc(-c2cccc3c2Sc2ccccc2S3)oc(N2CCOCC2)c1 [KU55933] (first compound 2 µM, partner dose 1 µM) | 82.1 | 125 | 45.5 | 94.9 |  | 107 | 87 | 151 | 129 | 134
O=C(CCCCCCC(=O)Nc1ccccc1)NO [vorinostat] + Cc1cc(SCc2sc(-c3ccc(C(F)(F)F)c(F)c3)nc2C)ccc1OCC(=O)O [GW0742] (first compound 0.08 µM, partner dose 2 µM) | 70.7 | 216 | 73.5 | 110 |  | 94.8 | 74.5 | 86.3 | 93.4 | 125
O=C(O)c1ccc(-c2c[nH]c3ncc(-c4ccccc4)cc23)cc1C1CCCC1 + C/C(O)=C(\C#N)C(=O)Nc1cc(Br)ccc1Br [LFM-A13] (first compound 0.16 µM, partner dose 2 µM) | 48.1 | 140 | 83.7 | 96.6 |  | 250 | 94.9 | 94 | 257 | 152
C[As](C)SC[C@H](NC(=O)CC[C@H](N)C(=O)O)C(=O)NCC(=O)O [Darinaparsin] + Cc1cc([N+](=O)[O-])ccc1NS(=O)(=O)c1cc(Cl)ccc1Cl [FH535] (first compound 0.4 µM, partner dose 1 µM) | 41 | 125 | 68.5 | 86.6 |  | 108 | 433 | 282 | 82.1 | 172
O=S(=O)(c1ccccc1)N(CC(F)(F)F)c1ccc(C(O)(C(F)(F)F)C(F)(F)F)cc1 + Cc1cc(SCc2sc(-c3ccc(C(F)(F)F)c(F)c3)nc2C)ccc1OCC(=O)O [GW0742] (first compound 1.4 µM, partner dose 2 µM) | 137 | 115 | 69.2 | 134 |  | 96.8 | 60.5 | 76.3 | 154 | 35.8
O=C(CCCCCCC(=O)Nc1ccccc1)NO [vorinostat] + C/C(O)=C(\C#N)C(=O)Nc1cc(Br)ccc1Br [LFM-A13] (first compound 0.08 µM, partner dose 2 µM) | 52.7 | 35.4 | 101 | 64.7 |  | 90.9 | 108 | 192 | 110 | 208
Cn1c(Nc2ccc(C(F)(F)F)cc2)nc2cc(Oc3ccnc(-c4ncc(C(F)(F)F)[nH]4)c3)ccc21 + C/C(O)=C(\C#N)C(=O)Nc1cc(Br)ccc1Br [LFM-A13] (first compound 0.08 µM, partner dose 2 µM) | 143 | 90.6 | 409 | 47.2 |  | 95 | 48.7 | 97.9 | 696 | 559
COc1cc(Nc2ncc(F)c(Nc3ccc4c(n3)NC(=O)C(C)(C)O4)n2)cc(OC)c1OC [Tamatinib] + Cc1cc(SCc2sc(-c3ccc(C(F)(F)F)c(F)c3)nc2C)ccc1OCC(=O)O [GW0742] (first compound 0.4 µM, partner dose 2 µM) | 20.9 | 59 | 81.2 | 125 |  | 85.6 | 41.3 | 77.6 | 178 | 53.6
C[C@]1(c2nc3c(C(N)=O)cccc3[nH]2)CCCN1 [Veliparib] + C/C(O)=C(\C#N)C(=O)Nc1cc(Br)ccc1Br [LFM-A13] (first compound 1.4 µM, partner dose 2 µM) | 68.1 | 162 | 52.5 | 98.8 |  | 99 | 24.2 | 76.6 | 90.8 | 89
COc1cc2ncnc(Nc3ccc(Oc4ccccc4)cc3)c2cc1OC + O=C(Oc1ccc([N+](=O)[O-])cc1)N1CCC(C(O)(c2ccc3c(c2)OCO3)c2ccc3c(c2)OCO3)CC1 [JZL184] (first compound 2 µM, partner dose 1 µM) | 139 | 68.5 | 78.9 | 43.6 |  | 85.1 | 49.4 | 123 | 119 | 70.7
O=c1[nH]nc(Sc2ncc([N+](=O)[O-])s2)n1-c1ccc2c(c1)OCCO2 + Cc1cc(SCc2sc(-c3ccc(C(F)(F)F)c(F)c3)nc2C)ccc1OCC(=O)O [GW0742] (first compound 0.2 µM, partner dose 2 µM) | 75.4 | 20.8 | 99 | 39.2 | 62.5 | 88.4 | 49.1 | 79.7 |  | 
NC(=O)Nc1cc(-c2cccc(F)c2)sc1C(=O)N[C@H]1CCCNC1 + C/C(O)=C(\C#N)C(=O)Nc1cc(Br)ccc1Br [LFM-A13] (first compound 0.02 µM, partner dose 2 µM) | 122 | 180 | 67.4 | 126 |  | 101 | 72.9 | 84.9 | 421 | 262
COc1cc2c(Oc3ccc4[nH]c(C)cc4c3F)ncnc2cc1OCCCN1CCCC1 [cediranib] + O=C(Oc1ccc([N+](=O)[O-])cc1)N1CCC(C(O)(c2ccc3c(c2)OCO3)c2ccc3c(c2)OCO3)CC1 [JZL184] (first compound 0.4 µM, partner dose 1 µM) | 73.4 | 149 | 77.3 | 120 |  | 129 | 104 | 63 | 35.6 | 295
O=C(Oc1ccc([N+](=O)[O-])cc1)N1CCC(C(O)(c2ccc3c(c2)OCO3)c2ccc3c(c2)OCO3)CC1 + Cn1cc(/C=C2\C(=O)Nc3cccnc32)c2ccccc21 [GW441756] (first compound 1 µM, partner dose 0.4 µM) | 37.6 | 123 | 66.6 | 46.8 |  | 78.5 | 118 | 81.7 | 272 | 259

As a short view, some entries already given.
SMILES | cleaved PARP positive nuclei fraction (501Mel) [%] | cleaved PARP positive nuclei fraction (A101D) [%] | cleaved PARP positive nuclei fraction (A2058) [%] | cleaved PARP positive nuclei fraction (C32) [%] | cleaved PARP positive nuclei fraction (CBRC008) [%] | cleaved PARP positive nuclei fraction (CBRC014) [%] | cleaved PARP positive nuclei fraction (CBRC016) [%] | cleaved PARP positive nuclei fraction (CBRC017) [%] | cleaved PARP positive nuclei fraction (A375) [%] | cleaved PARP positive nuclei fraction (CBRC013) [%]
COc1cc(Nc2ncc(F)c(Nc3ccc4c(n3)NC(=O)C(C)(C)O4)n2)cc(OC)c1OC [Tamatinib] + Cc1cc(SCc2sc(-c3ccc(C(F)(F)F)c(F)c3)nc2C)ccc1OCC(=O)O [GW0742] (first compound 0.4 µM, partner dose 2 µM) | 20.9 | 59 | 81.2 | 125 |  | 85.6 | 41.3 | 77.6 | 178 | 53.6
C[C@]1(c2nc3c(C(N)=O)cccc3[nH]2)CCCN1 [Veliparib] + C/C(O)=C(\C#N)C(=O)Nc1cc(Br)ccc1Br [LFM-A13] (first compound 1.4 µM, partner dose 2 µM) | 68.1 | 162 | 52.5 | 98.8 |  | 99 | 24.2 | 76.6 | 90.8 | 89
